Results from article PMC10339524.
Results are given in words; binding and its absence hold for the method and conditions named. Binding seen in cells or lysates may run through a third protein. Some entries that bind do so weakly or less than the wild type. For some assays here: Tags and fused reporters may be left off the sequences shown.

T1: Coiled-coil-helix-coiled-coil-helix domain-containing protein 4 (rat (endogenous in PASMCs)) (UniProt Q5BJN5)
T1 sequence: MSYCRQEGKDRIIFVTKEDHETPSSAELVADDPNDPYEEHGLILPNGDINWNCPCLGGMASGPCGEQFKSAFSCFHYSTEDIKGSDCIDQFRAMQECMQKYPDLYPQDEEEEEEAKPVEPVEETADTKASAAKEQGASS

T2: HA-tagged CHCHD4 (UniProt Q5BJN5)
T2 sequence: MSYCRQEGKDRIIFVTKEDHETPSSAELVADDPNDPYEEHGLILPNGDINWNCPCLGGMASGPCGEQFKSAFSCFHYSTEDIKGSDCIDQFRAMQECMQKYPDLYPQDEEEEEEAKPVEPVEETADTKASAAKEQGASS


Assays:
[1] = biological target: T1, Coiled-coil-helix-coiled-coil-helix domain-containing protein 4 (rat (endogenous in PASMCs)); assay: co-IP; PASMCs lysates immunoprecipitated with anti-CHCHD4 or anti-SAM50 antibodies, probed with anti-SAM50 or anti-CHCHD4 antibodies; endogenous proteins
HA-tagged CHCHD4 = biological target: T2, HA-tagged CHCHD4; assay: co-IP; Flag-agarose or HA-agarose beads incubated with lysates of HEK 293 cells transfected with Flag-tagged SAM50 alone or together with HA-tagged CHCHD4; probed with anti-HA or anti-Flag antibody

binding [1]	binding (HA-tagged CHCHD4)	Binder
binds	–	SAM50 (protein, UniProt Q6AXV4 1-469) MGTVHARSLEPLPSSGTDFGALGEEAEFVEVEPEAKQEILENKDVVVQHVHFDGLERTKDDIIICEIGEVFKAKNLIEVMRRSHEAREKLLRLGIFRQVDVLIDTCHGEDALPNGLDVTFEVTELRRLTGSYNTMVGNNEGSMVLGLKLPNLLGRAEKVTFQFSYGTKETSYGLSFFKPQPGNFEKNFSVNLYKVTGQFPWSSLRETDRGVSAEYSFPLCKTSHTVKWEGVWRELGCLARTASFAVRKESGHSLKSSLSHAMVIDSRNSSILPRRGALLKVNQELAGYTGGDVSFIKEDFELQLNKPLVLDSVFSTSLWGGMLVPIGDKLSSIADRFYLGGPTSVRGFSMHSIGPQSEGDYLGGEAYWAGGLHLYTPLPFRPGQGGFGELFRTHFFLNAGNLCNLNYGEGPRAHIRKLAECIRWSYGAGIVLRLGNIARLELNYCIPMGVQRGDRICDGVQFGAGIRFL
–	binds	Flag-tagged SAM50 (protein, UniProt Q6AXV4 1-469) MGTVHARSLEPLPSSGTDFGALGEEAEFVEVEPEAKQEILENKDVVVQHVHFDGLERTKDDIIICEIGEVFKAKNLIEVMRRSHEAREKLLRLGIFRQVDVLIDTCHGEDALPNGLDVTFEVTELRRLTGSYNTMVGNNEGSMVLGLKLPNLLGRAEKVTFQFSYGTKETSYGLSFFKPQPGNFEKNFSVNLYKVTGQFPWSSLRETDRGVSAEYSFPLCKTSHTVKWEGVWRELGCLARTASFAVRKESGHSLKSSLSHAMVIDSRNSSILPRRGALLKVNQELAGYTGGDVSFIKEDFELQLNKPLVLDSVFSTSLWGGMLVPIGDKLSSIADRFYLGGPTSVRGFSMHSIGPQSEGDYLGGEAYWAGGLHLYTPLPFRPGQGGFGELFRTHFFLNAGNLCNLNYGEGPRAHIRKLAECIRWSYGAGIVLRLGNIARLELNYCIPMGVQRGDRICDGVQFGAGIRFL
